Results deposited as PubChem BioAssay AID1259254 (NCATS, 2017).

Aim: 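Finding genes that stop cells copying their DNA twice in one cycle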 (primary screen)
Cells: human HCT116 colorectal cancer cells
Knock-down reagent: single siRNA against human genes
Time to read-out: 3 days
Measured: 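Nuclei stained with Hoechst and imaged; cell-cycle phase assigned by DNA content; G2 share scaled per plate, non-targeting siRNA 0%, GMNN siRNA 100%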
Reading the numbers: G2 robust z-score and G2 cells, % of GMNN control: higher = more G2 cells, more excess DNA replication; raw share of cells in G2: higher = larger share of cells with G2 DNA content
Call rule: 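Active siRNAs have a G2 robust z of 5 or more median absolute deviations over the median, which in these data means about 38% or higher of GMNN control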
In all, the deposit lists about 59,000 reagents; below is a random part of them. About 1,550 of all reagents (2.6%) count as active. 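G2 share is only a proxy for re-replication; each gene was hit by three separate siRNAs, and active genes were retested.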 Raw values are not corrected between plates. Entries without a mark were called inactive. Reagents against one gene are numbered here. Reagent sequences are not shown. Not stated in the record: the amount of reagent.

gene | reagent no. | G2 robust z-score | G2 cells, % of GMNN control | raw share of cells in G2 (%)
TBC1D2 (TBC1 domain family member 2) | 1 | -0.0389 | 2.69 | 5.56
TBC1D2 (TBC1 domain family member 2) | 2 | 1.05 | 10.4 | 8.44
TBC1D2 (TBC1 domain family member 2) | 3 | -0.198 | 1.58 | 3.64
ELK4 (ETS transcription factor ELK4) | 1 | 0.318 | 5.21 | 5.51
ELK4 (ETS transcription factor ELK4) | 2 | 2.5 | 20.6 | 13.1
ELK4 (ETS transcription factor ELK4) | 3 | -1.44 | -7.15 | 2.64
EYA2 (EYA transcriptional coactivator and phosphatase 2) | 1 | -0.805 | -2.7 | 4.26
EYA2 (EYA transcriptional coactivator and phosphatase 2) | 2 | 1.34 | 12.4 | 9.98
EYA2 (EYA transcriptional coactivator and phosphatase 2) | 3 | -0.619 | -1.39 | 3.16
RP9 (RP9 pre-mRNA splicing factor) | 1 | -0.012 | 2.88 | 6.2
RP9 (RP9 pre-mRNA splicing factor) | 2 | -0.939 | -3.64 | 2.78
RP9 (RP9 pre-mRNA splicing factor) | 3 | -0.389 | 0.23 | 3.44
ALKBH2 (alkB homolog 2, alpha-ketoglutarate dependent dioxygenase) | 1 | -0.653 | -1.63 | 3.44
ALKBH2 (alkB homolog 2, alpha-ketoglutarate dependent dioxygenase) | 2 | -0.498 | -0.538 | 3.17
ALKBH2 (alkB homolog 2, alpha-ketoglutarate dependent dioxygenase) | 3 | -0.875 | -3.19 | 0.887
ILDR2 (immunoglobulin like domain containing receptor 2) | 1 | 1.38 | 12.7 | 8.11
ILDR2 (immunoglobulin like domain containing receptor 2) | 2 | -0.378 | 0.305 | 3.54
ILDR2 (immunoglobulin like domain containing receptor 2) | 3 | 0.299 | 5.07 | 6.81
LRRC74B (leucine rich repeat containing 74B) | 1 | 1.78 | 15.5 | 9.45
LRRC74B (leucine rich repeat containing 74B) | 2 | -0.116 | 2.15 | 4.37
LRRC74B (leucine rich repeat containing 74B) | 3 | 1.95 | 16.7 | 11.7
LPAL2 (lipoprotein(a) like 2 (pseudogene)) | 1 | -0.629 | -1.46 | 4.98
LPAL2 (lipoprotein(a) like 2 (pseudogene)) | 2 | 0.322 | 5.23 | 6.2
LPAL2 (lipoprotein(a) like 2 (pseudogene)) | 3 | 2.32 | 19.3 | 11.4
STXBP3 (syntaxin binding protein 3) | 1 | 0.801 | 8.6 | 8.95
STXBP3 (syntaxin binding protein 3) | 2 | -0.529 | -0.755 | 3.6
STXBP3 (syntaxin binding protein 3) | 3 | -0.913 | -3.46 | 2.13
PXYLP1 (2-phosphoxylose phosphatase 1) | 1 | 1.69 | 14.9 | 9.63
PXYLP1 (2-phosphoxylose phosphatase 1) | 2 | 1.41 | 12.9 | 8.18
PXYLP1 (2-phosphoxylose phosphatase 1) | 3 | 0.571 | 6.99 | 5.6
TAS2R10 (taste 2 receptor member 10) | 1 | 0.415 | 5.89 | 5.11
TAS2R10 (taste 2 receptor member 10) | 2 | 1.95 | 16.7 | 10.2
TAS2R10 (taste 2 receptor member 10) | 3 | 0.104 | 3.7 | 5.95
ARSD (arylsulfatase D) | 1 | 1.07 | 10.5 | 8.28
ARSD (arylsulfatase D) | 2 | 2.08 | 17.6 | 11.3
ARSD (arylsulfatase D) | 3 | 2.43 | 20.1 | 11.5
ING3 (inhibitor of growth family member 3) | 1 | 0.5 | 6.48 | 6.29
ING3 (inhibitor of growth family member 3) | 2 | 0.2 | 4.37 | 5.86
ING3 (inhibitor of growth family member 3) | 3 | 0.434 | 6.02 | 8.69
CCDC141 (coiled-coil domain containing 141) | 1 | -0.172 | 1.76 | 4.28
CCDC141 (coiled-coil domain containing 141) | 2 | 2.58 | 21.1 | 11.2
CCDC141 (coiled-coil domain containing 141) | 3 | -0.0355 | 2.72 | 4.09
ZNF263 (zinc finger protein 263) | 1 | -0.462 | -0.286 | 4.63
ZNF263 (zinc finger protein 263) | 2 | -0.00169 | 2.96 | 6.32
ZNF263 (zinc finger protein 263) | 3 | 0.294 | 5.04 | 4.92
OR4F6 (olfactory receptor family 4 subfamily F member 6) | 1 | 4.47 | 34.4 | 15.6
OR4F6 (olfactory receptor family 4 subfamily F member 6) | 2 | 0.432 | 6.01 | 6.02
OR4F6 (olfactory receptor family 4 subfamily F member 6) | 3 | -1.1 | -4.77 | 2.59
HIVEP3 (HIVEP zinc finger 3) | 1 | 0.258 | 4.78 | 6.04
HIVEP3 (HIVEP zinc finger 3) | 2 | 1.43 | 13.1 | 11.1
HIVEP3 (HIVEP zinc finger 3) | 3 | -0.224 | 1.39 | 4.73
OGT (O-linked N-acetylglucosamine (GlcNAc) transferase) | 1 | -0.522 | -0.708 | 4.45
OGT (O-linked N-acetylglucosamine (GlcNAc) transferase) | 2 | -1.48 | -7.42 | 2.66
OGT (O-linked N-acetylglucosamine (GlcNAc) transferase) | 3 | -0.266 | 1.1 | 5.04
MEIOC (meiosis specific with coiled-coil domain) | 1 | -0.643 | -1.55 | 3.07
MEIOC (meiosis specific with coiled-coil domain) | 2 | -0.0743 | 2.44 | 3.99
MEIOC (meiosis specific with coiled-coil domain) | 3 | 0.3 | 5.08 | 4.81
LYST (lysosomal trafficking regulator) | 1 | -0.946 | -3.69 | 3.57
LYST (lysosomal trafficking regulator) | 2 | 1.27 | 11.9 | 8.45
LYST (lysosomal trafficking regulator) | 3 | 0.172 | 4.18 | 5.16
UIMC1 (ubiquitin interaction motif containing 1) | 1 | -0.298 | 0.873 | 3.92
UIMC1 (ubiquitin interaction motif containing 1) | 2 | 1.58 | 14.1 | 10.2
UIMC1 (ubiquitin interaction motif containing 1) | 3 | -1.13 | -5.02 | 1.53
REG4 (regenerating family member 4) | 1 | -0.884 | -3.26 | 3.02
REG4 (regenerating family member 4) | 2 | -0.654 | -1.64 | 2.97
REG4 (regenerating family member 4) | 3 | 0.456 | 6.18 | 4.28
PDE4DIPP3 (PDE4DIP pseudogene 3) | 1 | -0.564 | -1 | 2.45
PDE4DIPP3 (PDE4DIP pseudogene 3) | 2 | -0.14 | 1.98 | 4.31
PDE4DIPP3 (PDE4DIP pseudogene 3) | 3 | 1.73 | 15.2 | 8.04

Ordered by “raw share of cells in G2 (%)” (descending): 7 of the entries above.
gene | reagent no. | G2 robust z-score | G2 cells, % of GMNN control | raw share of cells in G2 (%)
ELK4 (ETS transcription factor ELK4) | 2 | 2.5 | 20.6 | 13.1
EYA2 (EYA transcriptional coactivator and phosphatase 2) | 2 | 1.34 | 12.4 | 9.98
RP9 (RP9 pre-mRNA splicing factor) | 1 | -0.012 | 2.88 | 6.2
EYA2 (EYA transcriptional coactivator and phosphatase 2) | 1 | -0.805 | -2.7 | 4.26
EYA2 (EYA transcriptional coactivator and phosphatase 2) | 3 | -0.619 | -1.39 | 3.16
RP9 (RP9 pre-mRNA splicing factor) | 2 | -0.939 | -3.64 | 2.78
ELK4 (ETS transcription factor ELK4) | 3 | -1.44 | -7.15 | 2.64
